Assay results taken from patent publication US20150223456A1, “PESTICIDAL COMPOUNDS” (SYNGENTA PARTICIPATIONS AG, priority 2011, published 2015).
Some entries share one result that the patent states for a list of compounds.

Tests used:
[1] = test system: Meloidogyne spp.; test: Meloidogyne spp. (root-knot nematode) contact activity, preventive, pouch test; assay type: in vivo; conditions: test solutions at 200 ppm on cucumber cv. Toshka seed in pouch; 3000 eggs; number of galls per root system after twelve days
[2] = test system: M. incognita; test: Meloidogyne spp. (root-knot nematode) contact activity, preventive, drench test; assay type: in vivo; conditions: 5 ml WP10 suspension at 20 ppm per pot, cucumber cv. Toshka; 3000 eggs of M. incognita; Zeck's gall index fourteen days after application

Compound | reduction of galling compared to the untreated control [1] | reduction of galling compared to the untreated control [2]
CC(NC(=O)c1ccccc1C(F)(F)F)C1(c2ncc(C(F)(F)F)cc2Cl)CC1 (racemic) [A.15] | ≥ 75% | ≥ 75%
O=C(NCC1(c2ncc(C(F)(F)F)cc2Cl)CC1)c1cccnc1C(F)(F)F [A.1] | ≥ 75% | ≥ 75%
Cc1nccnc1C(=O)NCC1(c2ncc(C(F)(F)F)cc2Cl)CC1 [A.2] | ≥ 75% | ≥ 75%
O=C(NCC1(c2ncc(C(F)(F)F)cc2Cl)CC1)c1cccnc1Cl [A.3] | ≥ 75% | ≥ 75%
O=C(NCC1(c2ncc(C(F)(F)F)cc2Cl)CC1)c1ncccn1 [A.4] | ≥ 75% | ≥ 75%
O=C(NCC1(c2ncc(C(F)(F)F)cc2Cl)CC1)c1ncccc1C(F)(F)F [A.5] | ≥ 75% | ≥ 75%
Cc1ncccc1C(=O)NCC1(c2ncc(C(F)(F)F)cc2Cl)CC1 [A.7] | ≥ 75% | ≥ 75%
Cc1ccccc1C(=O)NCC1(c2ncc(C(F)(F)F)cc2Cl)CC1 [A.9] | ≥ 75% | ≥ 75%
O=C(NCC1(c2ncc(C(F)(F)F)cc2Cl)CC1)c1ccccc1C(F)(F)F [A.10] | ≥ 75% | ≥ 75%
O=C(NCC1(c2ncc(C(F)(F)F)cc2Cl)CC1)c1c(F)cccc1F [A.11] | ≥ 75% | ≥ 75%
O=C(NCC1(c2ncc(C(F)(F)F)cc2Cl)CC1)c1nccnc1Cl [A.12] | ≥ 75% | ≥ 75%
O=C(NCC1(c2ncc(C(F)(F)F)cc2Cl)CC1)c1ncncc1Cl [A.13] | ≥ 75% | 
O=C(NCC1(c2ncc(C(F)(F)F)cc2Cl)CC1)c1ncccc1Cl [A.16] | ≥ 75% | ≥ 75%
Cc1cccnc1C(=O)NCC1(c2ncc(C(F)(F)F)cc2Cl)CC1 [A.17, 3-Methyl-pyridine-2-carboxylic acid [1-(3-chloro-5-trifluoromethyl-pyridin-2-yl)-cyclopropylmethyl]-amide] | ≥ 75% | 
C=C(C)N(CC1(c2ncc(C(F)(F)F)cc2Cl)CC1)C(=O)c1ccccc1C(F)(F)F [A.18] | ≥ 75% | 
O=C(NCC1(c2ncc(C(F)(F)F)cc2Cl)CC1)c1ccccc1S(=O)(=O)C(F)(F)F [A.19] |  | ≥ 75%
O=C(NCC1(c2ncc(C(F)(F)F)cc2Cl)CC1)c1c(F)cccc1C(F)(F)F [A.24] | ≥ 75% | 
O=C(NCC1(c2ncc(C(F)(F)F)cc2Cl)CC1)c1ccc(F)cc1Cl [A.30] | ≥ 75% | 

Compound | reduction of galling compared to the untreated control [1] | reduction of galling compared to the untreated control [2]
O=C(NCC1(c2ncc(C(F)(F)F)cc2Cl)CC1)c1ccc(F)cc1C(F)(F)F [A.49] | ≥ 75% | 
O=C(NCC1(c2ncc(C(F)(F)F)cc2Cl)CC1)c1cccc(Cl)c1F [A.50] | ≥ 75% | 
O=C(NCC1(c2ncc(C(F)(F)F)cc2Cl)CC1)c1cc(F)ccc1C(F)(F)F [A.51] | ≥ 75% | 
O=C(NCC1(c2ncc(C(F)(F)F)cc2Cl)CC1)c1ncccc1F [A.53] | ≥ 75% | 
O=C(NCC1(c2ncc(C(F)(F)F)cc2Cl)CC1)c1ccncc1C(F)(F)F [A.66] | ≥ 75% | 
O=C(NCC1(c2ncc(C(F)(F)F)cc2Cl)CC1)c1ccccc1C(F)F [A.82] | ≥ 75% | ≥ 75%
O=C(NCC1(c2ncc(C(F)(F)F)cc2Cl)CC1)c1cccc(C(F)(F)F)c1F [A.84] |  | ≥ 75%
O=C(NCC1(c2ncc(C(F)(F)F)cc2Cl)CC1)c1cccc(C(F)(F)F)n1 [A.86] |  | ≥ 75%
O=C(NCC1(c2ncc(Br)cc2Cl)CC1)c1c(F)cccc1F [A.90] | ≥ 75% | ≥ 75%
N#Cc1cnc(C2(CNC(=O)c3ccccc3C(F)(F)F)CC2)c(Cl)c1 [A.93] | ≥ 75% | ≥ 75%
N#Cc1cnc(C2(CNC(=O)c3nccnc3Cl)CC2)c(Cl)c1 [A.94] |  | ≥ 75%
O=C(NCC1(c2ncc(C3CC3)cc2Cl)CC1)c1ccccc1C(F)(F)F [A.95, N-[[1-(3-chloro-5-cyclopropyl-2-pyridyl)cyclopropyl]methyl]-2-(trifluoromethyl)benzamide] | ≥ 75% | ≥ 75%
O=C(NCC1(c2ncc(C(F)(F)F)cc2Cl)CC1)c1ccccc1 [A.99] |  | ≥ 75%
O=C(NCC1(c2ncc(C(F)(F)F)cc2Cl)CC1)c1ccccc1Cl [A.100] |  | ≥ 75%
O=C(NCC1(c2ncc(Br)cc2Cl)CC1)c1ncccc1C(F)(F)F [A.102, N-[[1-(5-bromo-3-chloro-2-pyridyl)cyclopropyl]methyl]-3-(trifluoromethyl)pyridine-2-carboxamide] |  | ≥ 75%
O=C(NCC1(c2ncc(Br)cc2Cl)CC1)c1ncccc1F [A.103] | ≥ 75% | ≥ 75%
O=C(NCC1(c2ccc(Cl)nc2Cl)CC1)c1ncccc1C(F)(F)F [A.106] |  | ≥ 75%
O=C(NCC1(c2ccc(Cl)nc2Cl)CC1)c1ncccc1Cl [A.107] |  | ≥ 75%
